The results in this text go back to US20140370521A1, “IDENTIFICATION OF TWO NOVEL BIOMARKERS FOR NIEMANN-PICK DISEASE TYPE C” (The USA , as Represented by the Secretary, Department of …, priority 2011, published 2014).

The expression values are mRNA levels of the gene; the protein chain is shown to identify it.

This data set has as its system Npc1-/- mouse liver. The data set can be described thus: Liver gene expression microarray, Npc1-/- versus control mice (Affymetrix Mouse GeneChip 1.0 ST). The note with it: negative = lower in Npc1−/−.
Setting [1] is: head prints "weeks" (column between 7 weeks and 11 weeks).

B1: Vegfb (protein, UniProt P49766 22-207, looked up)
Vascular endothelial growth …: PVSQFDGPSHQKKVVPWIDVYARATCQPREVVVPLSMELMGNVVKQLVPSCVTVQRCGGCCPDDGLECVPTGQHQVRMQILMIQYPSSQLGEMSLEEHSQCECRPKKKESAVKPDRVAIPHHRPQPRSVPGWDSTPGASSPADIIHPTPAPGSSARLAPSAVNALTPGPAAAAADAAASSIAKGGA
Take B1: the “FC (fold-change of expression between Npc1−/− and control mice)” value was 1.38 (1 week of age); 1.56 (3 weeks of age); 1.46 (5 weeks of age); 1.34 (7 weeks of age); 1.30 (11 weeks of age).

B2: Pdgfb (protein, UniProt P31240 82-190, looked up)
Platelet-derived growth …: SLGSLAAAEPAVIAECKTRTEVFQISRNLIDRTNANFLVWPPCVEVQRCSGCCNNRNVQCRASQVQMRPVQVRKIEIVRKKPIFKKATVTLEDHLACKCETIVTPRPVT
For the molecule B2, the “FC (fold-change of expression between Npc1−/− and control mice)” value is 1.31 (3 weeks of age); 1.35 (5 weeks of age); 1.66 (7 weeks of age); 1.85 (11 weeks of age); 1.70 under setting [1].

B3: Trem2 (protein, UniProt Q99NH8 19-227, looked up)
Triggering receptor expressed …: LNTTVLQGMAGQSLRVSCTYDALKHWGRRKAWCRQLGEEGPCQRVVSTHGVWLLAFLKKRNGSTVIADDTLAGTVTITLKNLQAGDAGLYQCQSLRGREAEVLQKVLVEVLEDPLDDQDAGDLWVPEESSSFEGAQVEHSTSRNQETSFPPTSILLLLACVLLSKFLAASILWAVARGRQKPGTPVVRGLDCGQDAGHQLQILTGPGGT
As to B3, the “FC (fold-change of expression between Npc1−/− and control mice)” value runs as follows: (3 weeks of age) 1.54; (5 weeks of age) 1.82; (7 weeks of age) 2.91; (11 weeks of age) 3.72; under setting [1], 3.77.

B4: Timp2 (protein, UniProt P25785 27-220, looked up)
Metalloproteinase inhibitor 2: CSCSPVHPQQAFCNADVVIRAKAVSEKEVDSGNDIYGNPIKRIQYEIKQIKMFKGPDKDIEFIYTAPSSAVCGVSLDVGGKKEYLIAGKAEGDGKMHITLCDFIVPWDTLSITQKKSLNHRYQMGCECKITRCPMIPCYISSPDECLWMDWVTEKSINGHQAKFFACIKRSDGSCAWYRGAAPPKQEFLDIEDP
Take B4: the “FC (fold-change of expression between Npc1−/− and control mice)” value by setting is: (3 weeks of age) 1.41; (5 weeks of age) 1.52; (7 weeks of age) 2.80; (11 weeks of age) 3.85; under setting [1], 2.64.

B5: Smoc2 (protein, UniProt Q8CD91 22-447, looked up)
SPARC-related modular …: QKFSALTFLRVDQDKDRDCSLDCPSSPQKPLCASDGRTFLSRCEFQRAKCKDPQLEIAHRGNCKDVSRCVAERKYTQEQARKEFQQVFIPECNDDGTYSQVQCHSYTGYCWCVTPNGRPISGTAVAHKTPRCPGSINEKVPQREGAGKADDAAAPALETQPQGDEEDIASRYPTLWTEQVKSRQNKTNKNSASSCDQEHQSALEEAKQPKNDNVVIPECAHGGLYKPVQCHPSTGYCWCVLVDTGRPIPGTSTRYEQPKCDNTARAHPAKARDLYKNRPLQGCPGAKKHEFLTSVLDALSTDMVHAVSDPSSSSGRLSEPDPSHTLEERVVHWYFKLLDKNSSGDIGKKEIKPFKRFLRKKSKPKKCVKKFVEYCDMNNDKSITVQELMGCLGVTREEGKANTRKRHTPRGNAESSSSNRQPRKQG
As to B5, the “FC (fold-change of expression between Npc1−/− and control mice)” value runs as follows: (3 weeks of age) 1.32; (5 weeks of age) 1.34; (7 weeks of age) 1.40; (11 weeks of age) 1.65; under setting [1], 1.49.

B6: A1bg (protein, UniProt Q19LI2 19-512, looked up)
Alpha-1B-glycoprotein: NTLMLDSGSEPKLWAEPQSLLEPWANLTLVCAVDLPTKVFELIQNGWFLSQVRLETQVLSYRFSLGAITSNNSGIYRCRCGVEPPVDIHLPALNKWTMLSNAVEVTGKEPLPRPLAHADPVDWITPGGLPVYVMCQVAMRGVTYLLRQEGVDGVQKPDVQHKGTAGFLIYKPGNYSCSYLTHAAGEPSEPSDIVTIKMYASQAPPTLCLMGNYLMIYPQKTYETLACKAPRNAAEFQLRQGGKVLKIHGFSPTRDAILYYVNLKELDNPGPFTCRYRMHKYMHVWSEDSKPVELMWSDETLQAPVLTAEPSSRDLEPGSTVQLRCTAPVSGLRFGLQRQGKPELVVVQMLNSSGTEAVFELHNISTIDSGNYSCIYMEQAPPFSGSSSSEPVELRVNGPPPKPRLEALWKSTVHLGQEAIFRCHGHVPRVSMELVREGFKTPFAVASTRSTSAYLKLLFVGPQHAGNYSCRYTALPPFTFESGISDPVEVIVEG
As to B6, the “FC (fold-change of expression between Npc1−/− and control mice)” value runs as follows: (5 weeks of age) −2.75; (7 weeks of age) −3.97; (11 weeks of age) −5.43; under setting [1], −4.13.

B7: Serpina9 (protein, UniProt Q9D7D2 26-418, looked up)
Serpin A9: NPYNQESSHLPSMKKNPASQVSPSNTRFSFLLYQRLAQENPGQNILFSPVSISTSLAMLSLGARSATKTQILRTLGFNFTWVSEPTIHMGFEYLVRSLNKCHQGRELRMGSVLFIRKELQLQATFLDRVKKLYGAKVFSEDFSNAATAQAQINSYVEKETKGKVVDVIQDLDSQTAMVLVNHIFFKANWTQPFSTANTNKSFPFLLSKGTTVHVPMMHQTESFAFGVDKELGCSILQMDYRGDAVAFFVLPGKGKMRQLEKSLSARRLRKWSRSLQKRWIKVFIPKFSISASYNLETILPKMGIRDAFNSNADFSGITKTHFLQVSKAAHKAVLDVSEEGTEAAAATTTKLIVRSRDTPSSIIAFKEPFLILLLDKNTESVLFLGKVENPRKM
B7: the “FC (fold-change of expression between Npc1−/− and control mice)” value (1 week of age) was −1.49; the “FC (fold-change of expression between Npc1−/− and control mice)” value (3 weeks of age) is listed as −1.70; the “FC (fold-change of expression between Npc1−/− and control mice)” value (5 weeks of age) was −1.50; the “FC (fold-change of expression between Npc1−/− and control mice)” value (11 weeks of age) is reported as −1.41; the “FC (fold-change of expression between Npc1−/− and control mice)” value under setting [1] is −1.50.

B8: Timp3 (protein, UniProt P39876 24-211, looked up)
Metalloproteinase inhibitor 3: CTCSPSHPQDAFCNSDIVIRAKVVGKKLVKEGPFGTLVYTIKQMKMYRGFSKMPHVQYIHTEASESLCGLKLEVNKYQYLLTGRVYEGKMYTGLCNFVERWDHLTLSQRKGLNYRYHLGCNCKIKSCYYLPCFVTSKNECLWTDMLSNFGYPGYQSKHYACIRQKGGYCSWYRGWAPPDKSISNATDP
Turning to B8, the “FC (fold-change of expression between Npc1−/− and control mice)” value by setting is: (3 weeks of age) 1.48; (5 weeks of age) 1.47; (7 weeks of age) 1.91; (11 weeks of age) 2.49; under setting [1], 1.67.

B9: Alcam (protein, UniProt Q61490 28-583, looked up)
CD166 antigen: WYTVNSAYGDTIVMPCRLDVPQNLMFGKWKYEKPDGSPVFIAFRSSTKKSVQYDDVPEYKDRLSLSENYTLSIANAKISDEKRFVCMLVTEDNVFEAPTLVKVFKQPSKPEIVNKAPFLETDQLKKLGDCISRDSYPDGNITWYRNGKVLQPVEGEVAILFKKEIDPGTQLYTVTSSLEYKTTRSDIQMPFTCSVTYYGPSGQKTIYSEQEIFDIYYPTEQVTIQVLPPKNAIKEGDNITLQCLGNGNPPPEEFMFYLPGQPEGIRSSNTYTLTDVRRNATGDYKCSLIDKRNMAASTTITVHYLDLSLNPSGEVTKQIGDTLPVSCTISASRNATVVWMKDNIRLRSSPSFSSLHYQDAGNYVCETALQEVEGLKKRESLTLIVEGKPQIKMTKKTDPSGLSKTIICHVEGFPKPAIHWTITGSGSVINQTEESPYINGRYYSKIIISPEENVTLTCTAENQLERTVNSLNVSAISIPEHDEADDISDENREKVNDQAKLIVGIVVGLLLAALVAGVVYWLYMKKSKTASKHVNKDLGNMEENKKLEENNHKTEA
With B9, the “FC (fold-change of expression between Npc1−/− and control mice)” value by setting is: (5 weeks of age) 1.53; (7 weeks of age) 1.67; (11 weeks of age) 1.59; under setting [1], 1.70.

B10: Ly86 (protein, UniProt O88188 20-162, looked up)
Lymphocyte antigen 86: DHGSENGWPKHTACNSGGLEVVYQSCDPLQDFGLSIDQCSKQIQSNLNIRFGIILRQDIRKLFLDITLMAKGSSILNYSYPLCEEDQPKFSFCGRRKGEQIYYAGPVNNPGLDVPQGEYQLLLELYNENRATVACANATVTSS
Consider B10, for which the “FC (fold-change of expression between Npc1−/− and control mice)” value amounted to 1.36 (3 weeks of age); 1.84 (5 weeks of age); 2.21 (7 weeks of age); 5.03 (11 weeks of age); 3.51 under setting [1].

B11: Pla2g7 (protein, UniProt Q60963 22-440, looked up)
Platelet-activating factor …: FHWQDTSSFDFRPSVMFHKLQSVMSAAGSGHSKIPKGNGSYPVGCTDLMFGYGNESVFVRLYYPAQDQGRLDTVWIPNKEYFLGLSIFLGTPSIVGNILHLLYGSLTTPASWNSPLRTGEKYPLIVFSHGLGAFRTIYSAIGIGLASNGFIVATVEHRDRSASATYFFEDQVAAKVENRSWLYLRKVKQEESESVRKEQVQQRAIECSRALSAILDIEHGDPKENVLGSAFDMKQLKDAIDETKIALMGHSFGGATVLQALSEDQRFRCGVALDPWMYPVNEELYSRTLQPLLFINSAKFQTPKDIAKMKKFYQPDKERKMITIKGSVHQNFDDFTFVTGKIIGNKLTLKGEIDSRVAIDLTNKASMAFLQKHLGLQKDFDQWDPLVEGDDENLIPGSPFDAVTQVPAQQHSPGSQTQN
In the case of B11, the “FC (fold-change of expression between Npc1−/− and control mice)” value runs as follows: (3 weeks of age) 1.34; (5 weeks of age) 1.91; (7 weeks of age) 2.60; (11 weeks of age) 5.07; under setting [1], 3.90.
